# Measurements as given in PubChem BioAssay AID651702 (NMMLSC, 2012).
# The campaign covered roughly 360,000 compounds. About 2,400 (0.67%) were called active. The inconclusive results got no clear call from the source; some entries with a clear call stand among them for comparison.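 How the source made its calls: active means inhibition above about 55% (limit read from the data); inconclusive means no clear call, values can overlap the other calls; inactive means the rest.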
# Experiment: LAMP-1 surface exposure blockers, TALL-104 cells – cell-based, flow cytometry, MLPCN library, primary screen (AID 651702)
# Conditions: TALL-104 LAMP-1 surface exposure, cells stimulated with thapsigargin and PMA; at 10 µM, stronger effect = higher value
row,SMILES,inhibition
1,C(=C\c1ccccc1)/CN1CCN(C(c2cccc3ccccc23)c2nnnn2C2CCCC2)CC1 (stereo not drawn),inactive: 1.9%
2,CC(/C=C/c1ccccc1)=N\NC(=O)c1ccc2c(c1)OCCO2,inconclusive
3,CSC1=C(C#N)C(=O)NC(c2ccccc2O)S1 (stereo not drawn),inactive: -6%
4,Cc1cs/c(=N\N=C\c2ccccc2)n1Cc1ccco1,inconclusive
5,Cc1ccc(-c2nc3ccsc3c(=O)[nH]2)cc1,inactive: 0.3%
6,CCNC(=S)NNC(=O)c1ccccc1Cl,inconclusive
7,NC(=O)c1ccsc1NC(=O)c1nc(-c2ccccc2)n(-c2ccccc2)n1,inactive: -1.4%
8,COc1ccc(N=C2S/C(=C\c3ccc(N4CCOCC4)o3)C(=O)N2CCc2c[nH]c3ccccc23)cc1,active: 82.1%
9,CN(Cc1ccon1)C(=O)c1ccc2nc(Cc3cccc(Cl)c3)oc2c1,inconclusive
10,CCOC(=O)C1CCN(Cc2c(C(=O)N3CCOCC3)nc3c(C)cccn23)CC1,inactive: -2.4%
11,CC1(C(=O)Nc2nccs2)CCN1C(=O)CC(c1ccccc1)c1ccccc1 (stereo not drawn),inconclusive
12,CCOC(=O)c1c(-c2ccccc2)csc1NC(=O)/C(C#N)=C/c1ccc(OC)c(OC)c1,inactive: -2.6%
13,COc1cccc(-n2ccn(CC(=O)NCCc3ccccc3)c(=O)c2=O)c1,inconclusive
14,COc1cc(CNc2ccccc2)c([N+](=O)[O-])cc1OC,inactive: -0.1%
15,CS(=O)(=O)Nc1ccc(C2=NN(C(=O)c3ccco3)C(c3ccccc3F)C2)cc1 (stereo not drawn),inconclusive
16,Cc1cc(C(=O)COC(=O)c2csc3c2CCCC3)c(C)n1C,inactive: 5%
17,O=C(Nc1cnn(Cc2c(Cl)cccc2Cl)c1)C(c1ccccc1)c1ccccc1,inconclusive
18,CN(NC(=O)/C=C/C(=O)O)c1ncc(C(F)(F)F)cc1Cl,inconclusive
19,CCN(CC)S(=O)(=O)c1cccc(C(=O)N/N=C/c2ccc(O)c(O)c2O)c1,inactive: 3.8%
20,O=C(NCCCN1CCN(c2ccc(F)cc2)CC1)Nc1ccc([N+](=O)[O-])cc1,inconclusive
21,COCCNC(=S)N1CCC(C(=O)c2ccc(C)cc2)CC1,inconclusive
22,Cc1ccccc1C(=O)NC1CC2CCCC(C1)N2C(=O)Nc1ccccc1 (stereo not drawn),inconclusive
23,O=C(Nc1ccc2oc(-c3ccccc3F)nc2c1)c1ccc2c(c1)OCCO2,active: 85.1%
24,CN1c2ccccc2C(C)(C)C12CC(c1ccc(S(=O)(=O)N3CCCCC3)cc1)=NO2 (stereo not drawn),inactive: -0.3%

row,SMILES,inhibition
1,O=C(NCc1ccccc1)c1c(Cl)nc(Cl)c(Cl)c1Cl,inactive: -4.3%
2,CCOC(=O)Cc1csc(NC(=O)/C=C\c2ccccc2)n1,inconclusive
3,O=C(CN1C(=O)/C(=C\c2cccc(Br)c2)Oc2ccccc21)NCCCN1CCOCC1,active: 64%
4,O=C(c1ccco1)N1CCN(C(=O)C2CC(c3ccccc3F)=NO2)CC1 (stereo not drawn),inconclusive
5,CCC1CCCCN1C(=O)c1nn2cccnc2c1Cl (stereo not drawn),inconclusive
6,COc1cccc(C(=O)OCC(=O)Nc2ccc3c(c2)OCCO3)c1,inactive: 7.3%
7,Cc1cc([N+](=O)[O-])ccc1-c1ccc(/C=N/NC(=O)Cc2ccccc2)o1,inconclusive
8,CC(=O)N(C)c1ccc(NC(=O)Nc2cccc3ccccc23)cc1,inconclusive
9,CCn1cc(Cl)c(C(=O)NNC(=O)CCn2nc(C)c([N+](=O)[O-])c2C)n1,inconclusive
10,O=[N+]([O-])c1ccc(Cl)cc1NCC1CCCO1 (stereo not drawn),inconclusive
11,Cc1ccc(Sc2ccc(NC(=O)c3ccc(S(C)(=O)=O)cc3Cl)cc2)cc1,inactive: -1.2%
12,O=C(CCCC(=O)N(CC(=O)NC1CCCC1)c1ccc(F)c(Cl)c1)Nc1ccccn1,inconclusive
13,COC(=O)Cn1c(=NC(=O)c2cc(-c3cccs3)nc3ccccc23)sc2cc(S(N)(=O)=O)ccc21,inactive: 19.5%
14,CCCC(c1nnnn1CC(=O)OCC)N(Cc1cc2ccc(C)cc2[nH]c1=O)C1CCCC1 (stereo not drawn),inconclusive
15,Clc1ccc(CN2CCc3c([nH]c4ccccc34)C2)cc1Cl,active: 58%
16,COc1ccccc1NC(=O)NNC(=O)c1ccc2c(c1)NC(=O)C(C)(C)O2,inconclusive
17,O=C(CN1CCN(c2ccc(Cl)cc2)CC1)Nc1ccc(F)c(F)c1,inconclusive
18,O=C(NCc1ccncc1)c1nc(-c2ccc(C(F)(F)F)cc2)no1,inconclusive
19,CCOc1ccc(N2C(=O)CS/C2=N/NC(=O)COc2ccc3ccccc3c2)cc1,inactive: 5.8%
20,COc1ccc(-n2nc(C(=O)NCC(=O)N3CCCC3)c3ccccc3c2=O)cc1,inconclusive
21,COC(=O)C1=C(C)NC=C([N+](=O)[O-])C1c1ccc(OC)cc1 (stereo not drawn),inconclusive
22,O=C(CCNS(=O)(=O)c1ccccc1)OCc1ccc([N+](=O)[O-])cc1,inconclusive
23,Cc1cccc(C)c1NC(=O)/C(=C/c1ccco1)c1ccccc1,inconclusive
24,CS(=O)(=O)N1CCN(C(=O)c2cc(-c3ccncc3)nc3ccc(Cl)cc23)CC1,inconclusive

# Quoted from the results shown, 4 compounds:
row,SMILES,inhibition
3,O=C(CN1C(=O)/C(=C\c2cccc(Br)c2)Oc2ccccc21)NCCCN1CCOCC1,active: 64%
4,O=C(c1ccco1)N1CCN(C(=O)C2CC(c3ccccc3F)=NO2)CC1 (stereo not drawn),inconclusive
5,CCC1CCCCN1C(=O)c1nn2cccnc2c1Cl (stereo not drawn),inconclusive
6,COc1cccc(C(=O)OCC(=O)Nc2ccc3c(c2)OCCO3)c1,inactive: 7.3%

# Structures shown so far containing two or more sulfur atoms (3):
row,SMILES,inhibition
3,CSC1=C(C#N)C(=O)NC(c2ccccc2O)S1 (stereo not drawn),inactive: -6%
11,Cc1ccc(Sc2ccc(NC(=O)c3ccc(S(C)(=O)=O)cc3Cl)cc2)cc1,inactive: -1.2%
13,COC(=O)Cn1c(=NC(=O)c2cc(-c3cccs3)nc3ccccc23)sc2cc(S(N)(=O)=O)ccc21,inactive: 19.5%

# (cont.)

row,SMILES,inhibition
1,COc1cc(O)c(C(CCN2CCN(c3ccccc3)CC2)c2ccc(N(C)C)cc2)c(OC)c1 (stereo not drawn),inactive: -0.5%
2,Nc1cc(=O)[nH]c(SCC(=O)NC2CCCc3ccccc32)n1 (stereo not drawn),inconclusive
3,O=C(NCc1ccccc1)/C(=C\c1ccc(F)cc1)NC(=O)c1ccco1,inactive: 1.6%
4,Cc1ccc2nc3c(cc(S(=O)(=O)c4ccccc4)c(=N)n3C3CCCC3)c(=O)n2c1,inactive: -2%
5,COc1ccc(C2(O)CCN(C(=O)c3c(F)cccc3F)CC2)cc1,inconclusive
6,Cc1nc2ccc(C(=O)Nc3ccc(N(C)C)cc3)cc2s1,inactive: 8.1%
7,COc1ccc(CNC(=S)Nc2cccc(C)c2)cc1,inconclusive
8,N#Cc1cnc(SCC(=O)NNC(=O)COc2cccc3ccccc23)nc1N,inconclusive
9,COc1ccc(C(=O)O/N=C(\N)Cc2ccc(Cl)cc2Cl)cc1OC,inconclusive
10,CCO[C@@H]1OC(C(=O)N2CCOCC2)=C[C@H](C2CCCCC2)[C@H]1CCCO,inactive: 11%
11,O=C(NCCN1CCOCC1)c1ccccc1Cl,inactive: 12.1%
12,Cc1ccc(/C=C2/NC(=O)N(Cc3ccccc3)C2=O)o1,active: 57.5%
13,COC1=C(Br)C(=O)c2nc(C)ccc2C1=O,active: 98.5%
14,COc1ccc(N(C(=O)Cn2nnc(-c3ccc(Cl)cc3)n2)C(C(=O)NCC2CCCO2)c2ccc(C)cc2)cc1 (stereo not drawn),inactive: 1%
15,CC1Cc2ccccc2N1C(=O)c1ccc(N2CCCCC2)c([N+](=O)[O-])c1 (stereo not drawn),inconclusive
16,O=C(CCc1nc(-c2ccc(Cl)cc2)no1)NCC1CCCO1 (stereo not drawn),inconclusive
17,CC(C)(C)OC(=O)NCC(=O)N1CCC(C(=O)O)CC1,inconclusive
18,O=C(NC1CCCC1)c1nc(-c2c(F)cccc2F)oc1-c1ccccc1,inactive: 4.8%
19,O=C(CSc1nc2ccccc2n1CC(=O)N1CCCCC1)N1CCCCC1,inconclusive
20,CCOc1ccccc1CNS(=O)(=O)c1csc(C(N)=O)c1,inconclusive
21,COc1ccc(-c2cnnc(N/N=C/c3c(C)nn(-c4ccccc4)c3Cl)n2)cc1,inactive: -7.9%
22,O=S(=O)(c1cccc(NC(=S)N2CCN(c3ccccc3F)CC2)c1)C(F)F,inconclusive
23,CCOc1ccc(C2c3[nH]c4ccccc4c3C[C@H]3C(=O)N(C4CCN(Cc5ccccc5)CC4)CC(=O)N23)cc1OC (stereo partly drawn),inactive: -4.5%
24,CC(C)(C)C(=O)Cn1ncc(Br)c(Br)c1=O,inactive: -0.6%

row,SMILES,inhibition
1,CN(C(=O)Cn1nc(C(=O)O)c2ccccc2c1=O)c1ccccc1,inconclusive
2,COc1ccc(NC(=O)COC(=O)/C=C/c2ccccc2[N+](=O)[O-])cc1OC,inconclusive
3,Cc1ccc(C)c(S(=O)(=O)N(C(=O)c2ccncc2)c2ccc(OC(=O)c3ccncc3)cc2)c1,inactive: -3.1%
4,Cc1nc(NC(=O)/C=C/c2ccccc2)sc1C(=O)Nc1ccccc1Cl,inactive: -6.6%
5,CCc1nc2c(OCc3ccc(OC)cc3)cccn2c1N(C)C(=O)c1ccncc1,inconclusive
6,N#Cc1ccc(NC(=O)Nc2ccc(Oc3ccc(NC(=O)Nc4ccc(C#N)cc4)cc3)cc2)cc1,active: 62%
7,COc1cccc(NC(=O)CCNS(=O)(=O)c2cccc3nonc23)c1,inconclusive
8,COc1ccccc1NS(=O)(=O)c1ccc(C)c(C(=O)NCC2(N(C)C)CCCCC2)c1,inactive: 1%
9,O=c1c2[nH]cnc2n(-c2cccc(Br)c2)c(=O)n1Cc1ccccc1,inconclusive
10,S=C(Nc1cccc(Cl)c1)N(CCCN1CCCC1)Cc1cccn1Cc1ccc(Cl)cc1,active: 84.6%
11,O=C(N/C(=C/c1ccco1)C(=O)N1CCCCC1)c1cccs1,inactive: -4.4%
12,CC(=O)Nc1cccc(C(=O)/C=C/c2ccco2)c1,inactive: 5.5%
13,CN(c1ccccc1)S(=O)(=O)c1cccc(C(=O)OCC(=O)NCc2ccc3c(c2)OCO3)c1,inconclusive
14,Cc1cc2c(=O)[nH]c(N)nc2[nH]1,inactive: 5.2%
15,O=C(O)COc1ccccc1/C=N/NC(=O)CSc1nc2ccccc2n1Cc1ccccc1Cl,inconclusive
16,COc1ccc(CN(C(=O)c2cccs2)c2ccccc2)cc1,inconclusive
17,C=CCN1C(=O)/C(=C\C=C2\N(C)c3ccccc3C2(C)C)SC1=S,inactive: -0.5%
18,Nc1nnc(SCC(=O)Nc2ccc3nc(SCC(=O)Nc4ccccc4)sc3c2)s1,inconclusive
19,Cc1oc(S(=O)(=O)N2CCCCC2)cc1NC(=O)Nc1ccccc1,inactive: 0.2%
20,COc1ccccc1OCC(=O)Nc1nnc(-c2ccco2)s1,inactive: 0.8%
21,Cc1cccc(N2CCN(C(=S)Nc3ccc4nc(N5CCN(C)CC5)cc(C)c4c3)CC2)c1C,active: 63.2%
